Three compounds from publication PMC9866339, “In Silico and In Vitro Study of Janus Kinases Inhibitors from Naphthoquinones” (Molecules, 2023) can be followed below.

For experiment [1], the system named is TF1 cells. In words: Presto Blue cytotoxicity assay on TF1 cells. Format: cell-based. The following applies: Homo sapiens, TF-1, 72 h, mean ± SEM, read-out: IC50 against TF1 cell viability. The method, then: The human erythroleukemia TF1 (ATCC CRL-2003) and HEL 92.1.7 (ATCC TIB-180) cells, which purchase from ATCC were grown in complete RPMI-1640 medium supplemented with fetal bovine serum (FBS, 10% v/v), 100 U/mL penicillin, and 100 μg/mL streptomycin. To the complete RPMI-1640 medium for TF1 cells was added 2 ng/mL of granulocyte-macrophage colony-stimulating factor (GM-CSF). Both cells were maintained at 37 °C in a 5% (v/v) CO2, 95% (v/v) air-humidified incubator.
The cytotoxicity activity of naphthoquinones against both TF1 and HEL cells was performed using the Presto Blue assay. The TF1 (50,000 cells/well) and HEL (25,000 cells/well) cell suspensions were seeded in a 96-well microplate and incubated overnight at 37 °C. […] The absorbance of the resorufin product was measured at 570 nm using a microplate reader (Infinite M200 microplate reader, Tecan, Männedorf, Switzerland) after adding 10 μL of Presto Blue reagent in TF1 and HEL cells, which incubated at 37 °C for 1 h. The treatment without compounds/known drugs was used as vehicle control.

For the next experiment, the system named is HEL cells. In words: Presto Blue cytotoxicity assay on HEL cells. The experiment is classed as cell-based. To be noted: Homo sapiens, 72 h, mean ± SEM, read-out: IC50 against HEL cell viability.
In experiment [2] the test system is TF1 cells. To be noted: for Total apoptotic cells, annexin V: 24-h treatment, at IC50; for Dead cells, annexin V / Early Apop. cells, annexin V / Late Apop./Dead cells, annexin V: at IC50, 24 h, dot plot quadrant.
Experiment [3] deals with TF1 cells. The following applies: at IC50, 24 h, dot plot quadrant.

One may read the IC50 as the concentration that inhibits the measured activity by half. As to `C[C@@H]1CCN(C(=O)CC#N)C[C@@H]1N(C)c1ncnc2[nH]ccc12` [Tofacitinib, tofacitinib, reference compound], the IC50 came out at 23.3 ± 1.37 µM in the experiment on TF1 cells [1] and 24.2 ± 0.67 µM in the experiment on HEL cells.
Turning to `CC(=O)c1cc2c(o1)C(=O)c1ccccc1C2=O` [Napabucasin, napabucasin], in the experiment on TF1 cells [2], the “Total apoptotic cells, annexin V” value is listed as ~ 40%; the “Dead cells, annexin V” value was found to be 1.35%; the “Early Apop. cells, annexin V” value was determined as 23.90%; the “Late Apop./Dead cells, annexin V” value came to 3.70%. Further, in the experiment on TF1 cells [3], the “Apoptotic cells, caspase 3/7” value stood at 4.70%; the “Apoptotic/Dead cells, caspase 3/7” value was 1.45%; the “Dead cells, caspase 3/7” value came out at 1.60%.
`CCC(=O)c1cc2c(o1)C(=O)c1ccccc1C2=O` [2′-methyl napabucasin]: in the experiment with TF1 cells [2], the “Total apoptotic cells, annexin V” value is on record as ~ 40%; the “Dead cells, annexin V” value is 0.55%; the “Early Apop. cells, annexin V” value is 29.15%; the “Late Apop./Dead cells, annexin V” value is reported as 4.00%. In the experiment on TF1 cells [3], the “Apoptotic cells, caspase 3/7” value is reported as 4.85%; the “Apoptotic/Dead cells, caspase 3/7” value is reported as 2.30%; the “Dead cells, caspase 3/7” value is recorded as 1.55%.
